# In patent US9328326B2, “Method for isolating cells” (MERCK PATENT GMBH, priority 2006, dated 2016):
# “Also recorded” adds a separate entry of the source.
# Key:
# [1] = ability of detergents, buffers, solvents and additives to dissolve food matrices (matrix lysis development)
# [2] = tested on: prfA gene of L. monocytogenes (real-time PCR); experiment: inhibitory effects of detergents on real-time PCR; type: biochemical; conditions: 0.1 M and 0.05 M urea
# Method: For experiments analysing the effects of food matrices and detergents contained in the matrix lysis buffer on real-time PCR, food matrices were mixed with equal amounts of ddH2O, stomachered for 3 minutes, diluted in a 10-fold dilution series (10^−1, 10^−2 and 10^−3) and 5 μl directly subjected to the real time PCR samples. An aliquot was cooked 15 min at 100° C. for comparison prior to subjection of 5 μl to real-time PCR. Detergents were diluted in 2-fold dilution series (0.4 M-0.05 M Urea and 0.8%-0.005% SDS) and 5 μl were subjected to the real-time PCR samples.
# Real-time PCR was performed in an Mx3000p real-time PCR thermocycler (Stratagene, USA). The 25 μl volume contained 20 mM Tris-HCl, 50 mM KCl, 3.5 mM MgCl2. 500 nM of each primer, 250 nM of each probe, 200 μM (each) of dATP, dTTP, dGTP and dCTP, 1.5 U of Platinum Taq DNA polymerase (Invitrogen, Austria), 25 copies of the IAC and […]. Amplification following initial denaturation at 94° C. for 2 min was performed in 45 cycles, at each 94° C. for 15 s and 64° C. for 1 minute.
compound,measurement,setting,value
"C[C@H](CCC(=O)NCCC[N+](C)(C)CCCS(=O)(=O)[O-])[C@H]1CC[C@H]2[C@@H]3[C@H](O)C[C@@H]4C[C@H](O)CC[C@]4(C)[C@H]3C[C@H](O)[C@]12C [CHAPS, 3-[(3-cholamidopropyl)dimethylammonio]-1-propanesulfonate]",lysis of food matrices,[1]; in combination with 8 M Urea or 8 M Guanidine,good performance; also recorded: worked well
same,lysis of food matrices,[1]; used individually,insufficient lysis
"NC(N)=O [8 M Urea, urea]",Ct value,"[2]; 15.5 copies, 32.9 without urea",32.9 (RSD: 2.6%)
same,Ct value,"[2]; 0.2 M, 1,550 copies, 26.3 without urea",26.1 (RSD: 0.94%)
"Cl.N=C(N)N [8 M Guanidine, guanidine hydrochloride]",performance in lysing food matrices,[1]; combined with detergents,even better performance
same,performance in lysing food matrices,[1]; used alone,good performance
